From patent publication US20200172486A1, “PYRIDONE COMPOUNDS AND AGRICULTURAL AND HORTICULTURAL FUNGICIDES CONTAINING THE SAME AS ACTIVE INGREDIENTS” (MITSUI CHEMICALS AGRO, INC., priority 2017, published 2020)
Some of these results come from one statement about several compounds together. At least one structure is not confirmed: it was looked up by name or label, or the drawing left a doubt.

Experiments:
[1] = test system: gray mold fungi (Botrytis cinerea); test: Test Example B: tomato gray mold, spray test on potted tomato plants; details: tomato (Oogata Fukuju), 250 ppm spray 2.5 ml/pot before inoculation, 2 to 3 days after inoculation
[2] = test system: grape downy mildew fungus (Plasmopara viticola); test: Test Example G: grape downy mildew, spray test on potted grape plants; details: grape (Neomuscat), 250 ppm spray 2.5 ml/pot before inoculation, 7 to 10 days after inoculation
[3] = test system: cucumber anthracnose fungi (Colletotrichum orbiculare); test: Test Example H: cucumber anthracnose, spray test on potted cucumber plants; details: cucumber (Sagami Hanjiro), 250 ppm spray 2.5 ml/pot before inoculation, 6 to 10 days after inoculation
[4] = test system: cabbage alternaria sooty spot fungi (Alternaia brassicicola); test: Test Example C: cabbage alternaria sooty spot, spray test on potted cabbage plants; details: cabbage (Shikidori), 250 ppm spray 2.5 ml/pot before inoculation, 2 to 3 days after inoculation

Measured: control value

CCn1c(-c2c(F)cc(OC)cc2F)c(NC)cc(Br)c1=O [Compound 71]
> 50%: all assays above

CCn1c(-c2c(F)cccc2F)c(Nc2ccc(F)cc2)cc(Cl)c1=O [compound 318]
> 50%: all assays above

CCn1c(-c2c(F)cc(F)cc2F)c(N(C)C(C)C)cc(Br)c1=O [Compound 107]
> 50%: all assays above

CCCN(CC)c1cc(Br)c(=O)n(CC)c1-c1c(F)cc(F)cc1F [Compound 113]
> 50%: all assays above

C#CCN(C)c1cc(Cl)c(=O)n(CC(F)F)c1-c1c(F)cc(F)cc1F [Compound 158]
> 50%: all assays above

CCn1c(-c2ccc(F)cc2F)c(N(C)C(C)C)cc(Br)c1=O [Compound 265]
> 50%: all assays above

CCn1c(-c2c(F)cccc2F)c(NCC(F)F)cc(Br)c1=O [Compound 257]
> 50%: all assays above

CCN(CC(F)F)c1cc(Cl)c(=O)n(CC)c1-c1ccc(F)cc1Br [compound 326]
> 50%: all assays above

CCNc1cc(Cl)c(=O)n(CC)c1-c1ccc(OC)cc1Cl [Compound 49]
> 50%: all assays above

CCn1c(-c2c(F)cccc2F)c(NC(C)C)cc(Cl)c1=O [Compound 163]
> 50%: all assays above

CCn1c(-c2ccccc2)c(N(C)C(C)C)cc(Br)c1=O [Compound 186]
> 50%: all assays above

CCn1c(-c2c(F)cc(F)cc2F)c(Nc2ccc(C)cc2)cc(Br)c1=O [Compound 145]
> 50%: all assays above

CCCNc1cc(Cl)c(=O)n(CC)c1-c1ccc(OC)cc1Cl [Compound 50]
> 50%: all assays above

CCn1c(-c2ccc(F)cc2)c(N(C)C(C)C)cc(Br)c1=O [Compound 166]
> 50%: all assays above

C#CCN(C)c1cc(Cl)c(=O)n(CC)c1-c1c(F)cc(F)cc1F [Compound 142]
> 50%: all assays above

CCn1c(-c2c(F)cccc2F)c(N(C)CC(F)F)cc(Cl)c1=O [compound 303]
> 50%: all assays above

C#CCN(CC)c1cc(Cl)c(=O)n(CC)c1-c1c(F)cc(F)cc1F [Compound 144]
> 50%: all assays above

CCN(CC)c1cc(Br)c(=O)n(CC)c1-c1c(F)cccc1F [compound 322]
> 50%: all assays above

CCN(C)c1cc(Cl)c(=O)n(CC)c1-c1ccc(F)cc1 [Compound 19]
> 50%: all assays above

C#CCN(C)c1cc(Br)c(=O)n(CC)c1-c1c(F)cc(OCCOC)cc1F [Compound 254]
> 50%: all assays above

CC#CCN(C)c1cc(Cl)c(=O)n(CC)c1-c1c(F)cc(F)cc1F [Compound 149]
> 50%: all assays above

CCn1c(-c2ccc(F)cc2F)c(N(C)c2ccccc2)cc(Br)c1=O [compound 297]
> 50%: all assays above

C=CCN(CC)c1cc(Br)c(=O)n(CC)c1-c1c(F)cc(F)cc1F [Compound 129]
> 50%: all assays above

CCn1c(-c2c(F)cccc2F)c(N(C)C(C)C)cc(Cl)c1=O [Compound 169]
> 50%: all assays above

CCn1c(-c2c(F)cccc2F)c(NCC(F)F)cc(Cl)c1=O [compound 302]
> 50%: all assays above

CCn1c(-c2c(F)cc(OC)cc2F)c(N)cc(Br)c1=O [Compound 70]
> 50%: all assays above

CCn1c(-c2c(F)cc(F)cc2F)c(Nc2ccccc2)cc(Cl)c1=O [Compound 114]
> 50%: all assays above

CCN(CC)c1cc(Cl)c(=O)n(CC)c1-c1ccc(OC)cc1Cl [Compound 56]
> 50%: all assays above

CCn1c(-c2c(F)cc(F)cc2F)c(NC2CCCCC2)cc(Br)c1=O [Compound 117]
> 50%: all assays above

C#CCN(CC)c1cc(Cl)c(=O)n(CC)c1-c1ccc(F)cc1F [Compound 276]
> 50%: all assays above

CCNc1cc(Br)c(=O)n(CC)c1-c1c(F)cccc1F [compound 321]
> 50%: all assays above

C#CCNc1cc(Cl)c(=O)n(CC)c1-c1ccc(F)cc1 [Compound 84]
> 50%: all assays above

CCn1c(-c2ccccc2)c(N(C)C(C)C)cc(Cl)c1=O [Compound 185]
> 50%: all assays above

CCNc1cc(Cl)c(=O)n(CC)c1-c1c(F)cccc1F [Compound 60]
> 50%: all assays above
